Values from PubChem BioAssay AID1224828 (NIAID, 2016).
Here is an unselected part of about 17,000 deposited reagents. In the full data, 762 (4.5%) were called active. 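Active calls include both raised and lowered p65 entry, mostly lowered; wells with fewer than 50 cells lack a z-score.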 Raw values are not corrected between plates. A reagent listed more than once was tested more than once; the source does not tell the runs apart.

- Aim: 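Find genes required for NF-kappaB p65 moving into the nucleus after LPS in mouse macrophages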 (primary screen)
- System: mouse RAW264.7 G9 macrophage reporter cells (GFP-p65, Tnf promoter-mCherry)
- Reagents: siRNA pool against mouse genes, 100 nM
- Duration: 2 days siRNA transfection, then 40 min LPS before fixation
- Challenge: LPS (Salmonella minnesota R595) at 10 ng/ml
- Measured: 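Imaged p65 nuclear translocation ratio, normalised to the plate median, converted to robust z-scores and averaged across two replicates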
- Direction: p65 translocation robust z-score: higher = more nuclear NF-kappaB p65 after LPS than the plate median; nuclear/cytoplasmic p65 ratio: higher = more nuclear NF-kappaB p65
- Call rule: 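Called active when z exceeds 3.3 or falls under -1.56 (median of Tlr4 controls), giving activity score of at least 50; no calls for control wells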
- Meaning of the calls: active = hit (p65 shift raised or lowered); inactive = no clear change

gene | p65 translocation robust z-score | nuclear/cytoplasmic p65 ratio, rep 1 | nuclear/cytoplasmic p65 ratio, rep 2 | low cell count flag | Outcome
Btg3 | -0.16 | 1.61 | 1.57 | enough cells to score | inactive
Cdhr5 | 1.29 | 1.97 | 1.8 | enough cells to score | inactive
Or9i2 | – | 1.72 | 1.14 | fewer than 50 cells per well; well left out of scoring | inactive
Sdf2 | 0.39 | 1.56 | 1.19 | enough cells to score | inactive
Ghrhr | -1.18 | 1.34 | 1.41 | enough cells to score | inactive
Epm2a | -0.75 | 1.36 | 1.26 | enough cells to score | inactive
Tmem147 | -1.68 | 1.15 | 1.34 | enough cells to score | active
Nrp1 | -0.38 | 1.4 | 1.36 | enough cells to score | inactive
Lias | 0.03 | 1.73 | 1.44 | enough cells to score | inactive
Rnf169 | 1.1 | 1.42 | 1.36 | enough cells to score | inactive
Calcoco1 | – | 1.86 | 1.65 | fewer than 50 cells per well; well left out of scoring | inactive
Wasf3 | -0.26 | 1.52 | 1.53 | enough cells to score | inactive
Slc45a2 | -0.03 | 1.43 | 1.34 | enough cells to score | inactive
Serinc3 | -0.67 | 1.46 | 1.4 | enough cells to score | inactive
Or4c107 | -2.07 | 1.38 | 1.24 | enough cells to score | active
Gpr18 | -0.77 | 1.38 | 1.49 | enough cells to score | inactive
Tenm3 | 0.18 | 1.39 | 1.51 | enough cells to score | inactive
Btbd6 | – | 1.14 | 1.47 | fewer than 50 cells per well; well left out of scoring | inactive
Hnmt | 1.09 | 1.56 | 1.53 | enough cells to score | inactive
Coprs | 1.38 | 1.49 | 1.65 | enough cells to score | inactive
Tjp3 | – | 1.42 | 1.35 | fewer than 50 cells per well; well left out of scoring | inactive
Ube2j2 | 0.66 | 1.63 | 1.57 | enough cells to score | inactive
Mims1 | 0.86 | 1.28 | 1.41 | enough cells to score | inactive
Tufm | -0.03 | 1.25 | 1.41 | enough cells to score | inactive
Nipsnap2 | -0.86 | 1.49 | 1.32 | enough cells to score | inactive
Jakmip1 | -1.71 | 1.13 | 1.24 | enough cells to score | active
Lao1 | -0.26 | 1.42 | 1.48 | enough cells to score | inactive
Wfdc18 | 2.34 | 1.96 | 1.76 | enough cells to score | inactive
Tmc5 | – | 1.42 | 1.14 | fewer than 50 cells per well; well left out of scoring | inactive
Cmklr2 | -0.46 | 1.45 | 1.5 | enough cells to score | inactive
Pard3b | -1.3 | 1.45 | 1.38 | enough cells to score | inactive
D930048N14Rik | 4.67 | 2.22 | 1.62 | enough cells to score | active
Alkbh5 | – | 1.3 | 1.72 | fewer than 50 cells per well; well left out of scoring | inactive
Ilkap | – | 2.26 | 1.48 | fewer than 50 cells per well; well left out of scoring | inactive
Ilkap | -1.02 | 1.26 | 1.44 | enough cells to score | inactive
Cdc42ep5 | 0.1 | 1.54 | 1.87 | enough cells to score | inactive
Ift172 | 0.26 | 1.53 | 1.52 | enough cells to score | inactive
Smpx | – | 1.68 | 1.17 | fewer than 50 cells per well; well left out of scoring | inactive
Exosc1 | -1.86 | 1.26 | 1.27 | enough cells to score | active
Epb41l4a | -0.56 | 1.54 | 1.36 | enough cells to score | inactive
Kif3b | -0.86 | 1.36 | 1.27 | enough cells to score | inactive
Nod1 | 0.34 | 1.65 | 1.68 | enough cells to score | inactive
Hoxaas2 | -0.85 | 1.21 | 1.4 | enough cells to score | inactive
Nucb1 | 0.14 | 1.5 | 1.4 | enough cells to score | inactive
Or4n5 | -0.8 | 1.1 | 1.18 | enough cells to score | inactive
Hlx | 0.17 | 1.43 | 1.43 | enough cells to score | inactive
Or8g51 | -1.17 | 1.28 | 1.11 | enough cells to score | inactive
Stard10 | 0.97 | 1.58 | 1.31 | enough cells to score | inactive
Ssu2 | 0.97 | 1.69 | 1.5 | enough cells to score | inactive
Etaa1 | – | 1.3 | 1.32 | fewer than 50 cells per well; well left out of scoring | inactive
Ppm1f | 0.84 | 1.62 | 1.51 | enough cells to score | inactive
Tmed10 | -0.46 | 1.54 | 1.55 | enough cells to score | inactive
Pcdhgb4 | 0.42 | 1.56 | 1.24 | enough cells to score | inactive
Crhr2 | – | 1.54 | 1.58 | fewer than 50 cells per well; well left out of scoring | inactive
Cog6 | 0.7 | 1.65 | 1.93 | enough cells to score | inactive
Larp6 | 0.23 | 1.32 | 1.57 | enough cells to score | inactive
Sephs1 | 0.44 | 1.57 | 1.43 | enough cells to score | inactive
Gskip | 0.88 | 1.48 | 1.59 | enough cells to score | inactive
Ncaph | -0.77 | 1.34 | 1.35 | enough cells to score | inactive
Pdgfra | 0.94 | 1.87 | 1.47 | enough cells to score | inactive
Mrpl48 | 1.34 | 1.99 | 1.8 | enough cells to score | inactive
Ap1s1 | 0.15 | 1.56 | 1.78 | enough cells to score | inactive
Kcnn3 | 0.53 | 1.51 | 1.49 | enough cells to score | inactive
Siah1b | -1.22 | 1.07 | 1.12 | enough cells to score | inactive
Akr1b7 | -2.47 | 1.23 | 1.31 | enough cells to score | active
Snapc1 | -0.02 | 1.58 | 1.52 | enough cells to score | inactive
1700013G24Rik | -0.78 | 1.29 | 1.16 | enough cells to score | inactive
Aqp1 | -0.53 | 1.56 | 1.52 | enough cells to score | inactive
Zfp947 | -1.43 | 1.24 | 1.36 | enough cells to score | inactive
Prop1 | -0.4 | 1.48 | 1.32 | enough cells to score | inactive
Mgme1 | -1.66 | 1.3 | 1.2 | enough cells to score | active
Wbp4 | – | 1.69 | 1.38 | fewer than 50 cells per well; well left out of scoring | inactive
Zcchc10 | 0.6 | 1.72 | 1.82 | enough cells to score | inactive
Ly75 | – | 1.48 | 1.35 | fewer than 50 cells per well; well left out of scoring | inactive
Atoh1 | -1.02 | 1.4 | 1.42 | enough cells to score | inactive
